In PubChem BioAssay AID720504 (National Center for Advancing Translational Sciences (NCATS), 2013):
Among all 360,000 compounds or so, about 10,000 (2.8%) were called active. Inconclusive results, whose numbers are uncertain, are shown with a selection of clear calls. The call rests on the fitted dose curve; in most records, active means well fitted inhibition curve with a large enough effect; inconclusive means small, poorly fitted or top-dose-only effect; inactive means flat fitted curve, though single readings scatter. Potencies of inconclusive entries are doubtful fits and often do not repeat.

Sequences of proteins named here, by UniProt entry; tags and fusion partners are left off.
UniProt P53350, whole entry, looked up: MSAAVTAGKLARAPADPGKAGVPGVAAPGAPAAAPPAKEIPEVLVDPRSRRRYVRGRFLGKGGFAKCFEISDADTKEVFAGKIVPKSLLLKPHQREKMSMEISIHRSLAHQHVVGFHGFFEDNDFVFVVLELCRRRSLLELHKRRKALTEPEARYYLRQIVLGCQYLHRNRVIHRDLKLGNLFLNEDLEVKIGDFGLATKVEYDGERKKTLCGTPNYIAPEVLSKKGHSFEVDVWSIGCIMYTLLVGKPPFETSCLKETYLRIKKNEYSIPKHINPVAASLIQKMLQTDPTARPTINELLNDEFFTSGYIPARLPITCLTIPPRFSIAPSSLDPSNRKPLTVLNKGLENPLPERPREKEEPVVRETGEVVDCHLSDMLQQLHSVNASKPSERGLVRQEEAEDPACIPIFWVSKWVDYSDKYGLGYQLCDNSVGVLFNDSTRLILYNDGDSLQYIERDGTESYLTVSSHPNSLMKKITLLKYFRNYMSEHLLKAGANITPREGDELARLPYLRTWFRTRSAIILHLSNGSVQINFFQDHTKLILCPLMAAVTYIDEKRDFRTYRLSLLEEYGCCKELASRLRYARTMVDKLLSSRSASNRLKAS

Biological target: Serine/threonine-protein kinase PLK1 (Homo sapiens) (UniProt P53350)
Test: qHTS for Inhibitors of PLK1-PDB (polo-like kinase 1 - polo-box domain): Primary Screen; further: nearly all actives have a fitted effect of over 65% in size; on max response, negative = inhibition: series mostly up to about 57 µM
Details: Plk1 PBD binding of FITC phosphopeptide, fluorescence polarization
On the % scale 0 is the no-effect control and ±100 the full control effect; potency means the concentration at half of the fitted maximal effect.

SMILES	max response, negative = inhibition	Potency
COc1ccccc1N=Nc1c(C)[nH]n(-c2ccccc2)c1=O	inactive: -8.55%	–
CCOc1ccc(NC(=O)c2ccc(NC(=O)c3ccc(NC(N)=O)cc3)cc2)cc1	inconclusive: -31.4% [inhibitor]	–
CC(=O)NC(=O)NC1OC(=O)C(Cl)=C1Cl (stereo not given)	–	inconclusive: 26.7 µM [inhibitor, partial curve]
COc1ccc(Cl)cc1NC(=O)CSc1nc2sccc2c(=O)[nH]1	–	inconclusive: 37.7 µM [inhibitor, single point]
O=C(/C=C/c1ccco1)Nc1cc(Cl)ccc1C(=O)O	–	inconclusive: 21.2 µM [inhibitor, partial curve]
COC(=O)C1CN(C(=O)COc2ccc(Cl)cc2C)c2ccccc2O1 (stereo not given)	inactive: -3.75%	–
C=CCN1C(=O)C(CCCC)NC1=S (stereo not given)	inconclusive: -31.7% [inhibitor]	–
Oc1c(C(c2ccccc2)N2CCOCC2)ccc2ccccc12 (stereo not given)	–	active: 1.19 µM
O=C(CN1C(=O)/C(=C/c2ccco2)SC1=S)NC1CCS(=O)(=O)C1 (stereo not given)	–	active: 29.9 µM
CCN(CC)S(=O)(=O)c1ccc(N2CCCC2)c(NC(=O)c2c(-c3ccccc3)noc2C)c1	–	inconclusive: 26.7 µM [inhibitor, single point]
N#CC1=C(SCC(=O)Nc2cccc3cccnc23)NC(=O)C(C#N)C12CCCCC2 (stereo not given)	–	inconclusive: 67 µM [inhibitor, partial curve]
Cc1cccc(NC(=O)C2CC(=O)n3cnnc3S2)c1 (stereo not given)	–	inconclusive: 26.7 µM [inhibitor, partial curve]
C=CCNc1nc(N2CCOCC2)c(C#N)c2c1CN(C)CC2	–	inconclusive: 26.7 µM [inhibitor, single point]
Cc1ccc(-n2c(O)c(/C=N/NC(=O)C3COc4ccccc4O3)c3ccccc3c2=O)cc1 (stereo not given)	inactive: 19.2%	–
CC(C)c1nc2cc(C(=O)NC(c3cccnc3)C(F)(F)F)ccc2o1 (stereo not given)	–	inconclusive: 21.2 µM [inhibitor, partial curve]
CC(=O)Oc1ccccc1C1OC(=O)c2ccccc2N1C(C)=O (stereo not given)	inconclusive: -30.7% [inhibitor]	–
COC(=O)c1ccc2nc(-c3cccc(Br)c3)c(Cc3ccccc3C(F)(F)F)n2c1	inactive: -0.95%	–
N#CC1C(C#N)N2CCCN2C1c1ccc(Cl)cc1 (stereo not given)	–	active: 2.99 µM
O=C(NCCCn1ccnc1)C(Cc1ccccc1)N1C(=O)c2ccccc2C1=O (stereo not given)	–	inconclusive: 29.9 µM [inhibitor, partial curve]
Cc1ccc(NC(=S)N(Cc2cccc(Br)c2)CC2CCC(C(=O)O)CC2)cc1 (stereo not given)	–	inconclusive: 26.7 µM [inhibitor, partial curve]
NS(=O)(=O)c1cccc(NC(=S)NCc2ccc3c(c2)OCO3)c1	inconclusive: -33.1% [inhibitor]	–
O=C(NNC(=S)NC(=O)c1ccccc1)c1cccnc1	–	inconclusive: 29.9 µM [inhibitor, partial curve]
CCc1ccc(-c2nc(CN3CCCC(C(=O)NCCc4ccc(OC)c(OC)c4)C3)c(C)o2)cc1 (stereo not given)	inactive: -5.04%	–

SMILES	max response, negative = inhibition	Potency
COc1c(CC=C(C)C)cc(C2CC(=O)c3c(O)cc(O)cc3O2)cc1CC=C(C)C (stereo not given)	inactive: -7.22%	–
Cc1ccc(/C=N/n2c(COc3ccccc3)n[nH]c2=S)cc1	–	active: 21.2 µM
O=C(NNC(=S)Nc1cccc(C(F)(F)F)c1)c1ccncc1	inactive: 0.207%	–
COc1ccccc1NS(=O)(=O)c1cc(NC(=O)c2ccccc2[N+](=O)[O-])ccc1N1CCOCC1	–	inconclusive: 26.7 µM [inhibitor, partial curve]
O=C(Nc1ncccc1O)c1cccc(S(=O)(=O)NCc2ccccc2)c1	inactive: -3.02%	–
COC(=O)c1ccccc1S(=O)(=O)N1CCC(c2nc3ccccc3o2)CC1	–	inconclusive: 29.9 µM [inhibitor, partial curve]
COc1cc(OC)cc(C(=O)NCC2CCCN(Cc3cccc(C(C)=O)c3)C2)c1 (stereo not given)	inactive: -6.44%	–
Cc1cccc(N2CCN(C(=O)CCS(=O)(=O)c3ccc4c(c3)NC(=O)CO4)CC2)c1C	–	active: 11.9 µM
Cc1ccc(-n2ncc3c(=O)[nH]c(SCC(=O)N4CCCc5ccccc54)nc32)cc1	–	inconclusive: 26.7 µM [inhibitor, single point]
Nn1cnn(Cc2ccccc2)c1=S	–	active: 23.8 µM
O=C(NCC1CCCO1)c1ccc(CNS(=O)(=O)c2cccc(Cl)c2)cc1 (stereo not given)	inconclusive: -32.4% [inhibitor]	–
O=C(CCCCCn1c(=S)[nH]c2ccc(N3CCOCC3)cc2c1=O)NCc1ccccc1	–	inconclusive: 4.74 µM [inhibitor, single point]
O=C1c2ccccc2C(=O)C12OC2c1cccc2ccccc12 (stereo not given)	–	inconclusive: 29.9 µM [inhibitor, partial curve]
COc1cc(/C=C2/CCCC(C(=O)C(F)(F)F)=C2O)ccc1O	inactive: -6.1%	–
CCOC(=O)C1=C(O)C(=O)N(c2ccc(S(N)(=O)=O)cc2)C1c1ccc([N+](=O)[O-])cc1 (stereo not given)	–	active: 29.9 µM
COc1cc(C(=O)N/N=C/c2coc3ccc(Cl)cc3c2=O)ccc1O	–	inconclusive: 16.8 µM [inhibitor, partial curve]
CCCCNC(=O)c1onc(CSc2ccccn2)c1C(=O)NCCCC	–	inconclusive: 37.7 µM [inhibitor, single point]
CCOc1cccc(-c2nnc3sc(C4CCCCC4)nn23)c1	–	inconclusive: 26.7 µM [inhibitor, partial curve]
Cc1nc(-c2ccc(S(=O)(=O)N3CCOCC3)cc2)cs1	–	inconclusive: 23.8 µM [inhibitor, partial curve]
COc1ccc(-c2cc(C(F)(F)F)nc(S(=O)(=O)CCC(=O)N3CCOCC3)n2)cc1	–	inconclusive: 21.2 µM [inhibitor, partial curve]
C=CCN(CC=C)CCOc1ccccc1F	–	inconclusive: 23.8 µM [inhibitor, partial curve]
COc1ccc(NC(=O)COC(=O)Cc2c[nH]c3ccccc23)cc1OC	–	inconclusive: 23.8 µM [inhibitor, partial curve]

By substructure: those above with bromine.
SMILES	max response, negative = inhibition	Potency
COC(=O)c1ccc2nc(-c3cccc(Br)c3)c(Cc3ccccc3C(F)(F)F)n2c1	inactive: -0.95%	–
Cc1ccc(NC(=S)N(Cc2cccc(Br)c2)CC2CCC(C(=O)O)CC2)cc1 (stereo not given)	–	inconclusive: 26.7 µM [inhibitor, partial curve]
